# Results from the supplement of paper PMC8728848.
# This is one part of the list.
# B1: SJCP1084 (Schistosoma japonicum) (protein)
# chain: MRIINLVIISTALLLINLLQTKSQANGEDTKNGTPDDPGLTKSTELKVEVQALLKDKKTNMRVKWNENLLDNTKPEYHNLRDEACELLLQIVRSVVPLSQDDGECKDVTFTKYVVGTKDGAVNVKLTITFKDSVAINQKPMDLKLKLENDFKNLQSESTLKATKPTFTVKVEKRLIPISKPQTTPPTTAKNDASKENVGDIGGEDSTVPTAAPATAASANEEKDEGDKDNKDSQHPNVLTSNVNDRNLIIALVALMILAIGVALTAAVKQR
# Experiments:
# Assay in all cases: glycan array binding signal (z-score within array); higher = stronger binding
# Conditions in all cases: glycan notation: IUPAC condensed, linker removed
# [1] = target: Gal(b1-4)GlcNAc(b1-3)Gal(b1-4)GlcNAc(b1-2)[Gal(b1-4)GlcNAc(b1-3)Gal(b1-4)GlcNAc(b1-6)]Man(a1-6)[Gal(b1-4)GlcNAc(b1-3)Gal(b1-4)GlcNAc(b1-2)Man(a1-3)]Man(b1-4)GlcNAc(b1-4)GlcNAc
# Summary of the method: (§1)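 Arrays were curated from the Consortium for Functional Glycomics database, 3228 in total, and kept only where the protein sequence was available. Binding is expressed as a within-array Z-score. This score was averaged across arrays of the same protein sequence at different concentrations or buffers and across linkers, and negative values can be read as non-binding.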
# [2] = target: Gal(b1-4)GlcNAc(b1-3)Gal(b1-4)GlcNAc(b1-2)[Gal(b1-4)GlcNAc(b1-3)Gal(b1-4)GlcNAc(b1-6)]Man(a1-6)[Gal(b1-4)GlcNAc(b1-3)Gal(b1-4)GlcNAc(b1-2)Man(a1-3)]Man(b1-4)GlcNAc(b1-4)[Fuc(a1-6)]GlcNAc
# Summary of the method: as §1
# [3] = target: Gal(b1-4)GlcNAc(b1-3)Gal(b1-4)GlcNAc(b1-3)Gal(b1-4)GlcNAc
# Summary of the method: as §1
# [4] = target: Gal(b1-4)GlcNAc(b1-3)Gal(b1-4)GlcNAc(b1-3)Gal(b1-4)GlcNAc(b1-2)Man(a1-3)[Gal(b1-4)GlcNAc(b1-3)Gal(b1-4)GlcNAc(b1-3)Gal(b1-4)GlcNAc(b1-2)Man(a1-6)]Man(b1-4)GlcNAc(b1-4)GlcNAc
# Summary of the method: as §1
# [5] = target: Gal(b1-4)GlcNAc(b1-3)Gal(b1-4)GlcNAc(b1-3)Gal(b1-4)GlcNAc(b1-2)Man(a1-3)[Gal(b1-4)GlcNAc(b1-3)Gal(b1-4)GlcNAc(b1-3)Gal(b1-4)GlcNAc(b1-2)Man(a1-6)]Man(b1-4)GlcNAc(b1-4)[Fuc(a1-6)]GlcNAc
# Summary of the method: as §1
# [6] = target: Gal(b1-4)GlcNAc(b1-3)Gal(b1-4)GlcNAc(b1-3)Gal(b1-4)GlcNAc(b1-2)[Gal(b1-4)GlcNAc(b1-3)Gal(b1-4)GlcNAc(b1-3)Gal(b1-4)GlcNAc(b1-6)]Man(a1-6)[Gal(b1-4)GlcNAc(b1-3)Gal(b1-4)GlcNAc(b1-3)Gal(b1-4)GlcNAc(b1-2)Man(a1-3)]Man(b1-4)GlcNAc(b1-4)[Fuc(a1-6)]GlcNAc
# Summary of the method: as §1
# [7] = target: Gal(b1-4)GlcNAc(b1-3)Gal(b1-4)GlcNAc(b1-3)Gal(b1-4)GlcNAc(b1-3)Gal(b1-4)GlcNAc(b1-2)Man(a1-3)[Gal(b1-4)GlcNAc(b1-3)Gal(b1-4)GlcNAc(b1-3)Gal(b1-4)GlcNAc(b1-3)Gal(b1-4)GlcNAc(b1-2)Man(a1-6)]Man(b1-4)GlcNAc(b1-4)GlcNAc
# Summary of the method: as §1
# [8] = target: Gal(b1-4)GlcNAc(b1-3)Gal(b1-4)GlcNAc(b1-3)Gal(b1-4)GlcNAc(b1-3)Gal(b1-4)GlcNAc(b1-2)Man(a1-3)[Gal(b1-4)GlcNAc(b1-3)Gal(b1-4)GlcNAc(b1-3)Gal(b1-4)GlcNAc(b1-3)Gal(b1-4)GlcNAc(b1-2)Man(a1-6)]Man(b1-4)GlcNAc(b1-4)[Fuc(a1-6)]GlcNAc
# Summary of the method: as §1
# [9] = target: Gal(b1-4)GlcNAc(b1-3)Gal(b1-4)GlcNAc(b1-3)Gal(b1-4)GlcNAc(b1-3)Gal(b1-4)GlcNAc(b1-2)[Gal(b1-4)GlcNAc(b1-3)Gal(b1-4)GlcNAc(b1-3)Gal(b1-4)GlcNAc(b1-3)Gal(b1-4)GlcNAc(b1-6)]Man(a1-6)[Gal(b1-4)GlcNAc(b1-3)Gal(b1-4)GlcNAc(b1-3)Gal(b1-4)GlcNAc(b1-3)Gal(b1-4)GlcNAc(b1-2)Man(a1-3)]Man(b1-4)GlcNAc(b1-4)[Fuc(a1-6)]GlcNAc
# Summary of the method: as §1
# [10] = target: Gal(b1-4)GlcNAc(b1-3)Gal(b1-4)GlcNAc(b1-3)Gal(b1-4)GlcNAc(b1-3)Gal(b1-4)GlcNAc(b1-3)Gal(b1-4)GlcNAc(b1-2)Man(a1-3)[Gal(b1-4)GlcNAc(b1-3)Gal(b1-4)GlcNAc(b1-3)Gal(b1-4)GlcNAc(b1-3)Gal(b1-4)GlcNAc(b1-3)Gal(b1-4)GlcNAc(b1-2)Man(a1-6)]Man(b1-4)GlcNAc(b1-4)GlcNAc
# Summary of the method: as §1
# [11] = target: Gal(b1-4)GlcNAc(b1-3)Gal(b1-4)GlcNAc(b1-3)Gal(b1-4)GlcNAc(b1-3)Gal(b1-4)GlcNAc(b1-3)Gal(b1-4)GlcNAc(b1-2)Man(a1-3)[Gal(b1-4)GlcNAc(b1-3)Gal(b1-4)GlcNAc(b1-3)Gal(b1-4)GlcNAc(b1-3)Gal(b1-4)GlcNAc(b1-3)Gal(b1-4)GlcNAc(b1-2)Man(a1-6)]Man(b1-4)GlcNAc(b1-4)[Fuc(a1-6)]GlcNAc
# Summary of the method: as §1
# [12] = target: Gal(b1-4)GlcNAc(b1-3)Gal(b1-4)GlcNAc(b1-3)Gal(b1-4)GlcNAc(b1-3)Gal(b1-4)GlcNAc(b1-3)Gal(b1-4)GlcNAc(b1-2)[Gal(b1-4)GlcNAc(b1-3)Gal(b1-4)GlcNAc(b1-3)Gal(b1-4)GlcNAc(b1-3)Gal(b1-4)GlcNAc(b1-3)Gal(b1-4)GlcNAc(b1-6)]Man(a1-6)[Gal(b1-4)GlcNAc(b1-3)Gal(b1-4)GlcNAc(b1-3)Gal(b1-4)GlcNAc(b1-3)Gal(b1-4)GlcNAc(b1-3)Gal(b1-4)GlcNAc(b1-2)Man(a1-3)]Man(b1-4)GlcNAc(b1-4)[Fuc(a1-6)]GlcNAc
# Summary of the method: as §1
# [13] = target: Gal(b1-4)GlcNAc(b1-3)Gal(b1-4)GlcNAc(b1-3)Gal(b1-4)GlcNAc(b1-3)Gal(b1-4)GlcNAc(b1-3)Gal(b1-4)GlcNAc(b1-3)Gal(b1-4)GlcNAc(b1-2)Man(a1-3)[Gal(b1-4)GlcNAc(b1-3)Gal(b1-4)GlcNAc(b1-3)Gal(b1-4)GlcNAc(b1-3)Gal(b1-4)GlcNAc(b1-3)Gal(b1-4)GlcNAc(b1-3)Gal(b1-4)GlcNAc(b1-2)Man(a1-6)]Man(b1-4)GlcNAc(b1-4)GlcNAc
# Summary of the method: as §1
# [14] = target: Gal(b1-4)GlcNAc(b1-3)Gal(b1-4)GlcNAc(b1-3)GalNAc
# Summary of the method: as §1
# [15] = target: Gal(b1-4)GlcNAc(b1-3)Gal(b1-4)GlcNAc(b1-3)[Gal(b1-4)GlcNAc(b1-3)Gal(b1-4)GlcNAc(b1-6)]GalNAc
# Summary of the method: as §1
# [16] = target: Gal(b1-4)GlcNAc(b1-3)Gal(b1-4)GlcNAc(b1-6)[Gal(b1-3)]GalNAc
# Summary of the method: as §1
# [17] = target: Gal(b1-4)GlcNAc(b1-3)Gal(b1-4)[Fuc(a1-3)]GlcNAc(b1-3)Gal(b1-4)[Fuc(a1-3)]GlcNAc
# Summary of the method: as §1
# [18] = target: Gal(b1-4)GlcNAc(b1-3)GalNAc
# Summary of the method: as §1
# [19] = target: Gal(b1-4)GlcNAc(b1-3)[Fuc(a1-3)GlcNAc(b1-6)]Gal(b1-4)Glc
# Summary of the method: as §1
# [20] = target: Gal(b1-4)GlcNAc(b1-3)[Gal(b1-4)GlcNAc(b1-6)]Gal(b1-4)GlcNAc
# Summary of the method: as §1
# [21] = target: Gal(b1-4)GlcNAc(b1-3)[GlcNAc(b1-6)]Gal(b1-4)GlcNAc
# Summary of the method: as §1
# [22] = target: Gal(b1-4)GlcNAc(b1-6)Gal(b1-4)GlcNAc
# Summary of the method: as §1
# [23] = target: Gal(b1-4)GlcNAc(b1-6)GalNAc
# Summary of the method: as §1
# [24] = target: Gal(b1-4)GlcNAc(b1-6)[Gal(b1-3)]GalNAc
# Summary of the method: as §1
# [25] = target: Gal(b1-4)GlcNAc(b1-6)[Gal(b1-4)GlcNAc(b1-3)]GalNAc
# Summary of the method: as §1
# Gal(b1-4)GlcNAc6P = target: Gal(b1-4)GlcNAc6P
# Summary of the method: as §1
# Gal(b1-6)Gal = target: Gal(b1-6)Gal
# Summary of the method: as §1
# Gal3S(b1-3)GalNAc = target: Gal3S(b1-3)GalNAc
# Summary of the method: as §1
# Gal3S(b1-3)GlcNAc = target: Gal3S(b1-3)GlcNAc
# Summary of the method: as §1
# [26] = target: Gal3S(b1-3)[Fuc(a1-4)]GlcNAc
# Summary of the method: as §1
# Gal3S(b1-4)Glc = target: Gal3S(b1-4)Glc
# Summary of the method: as §1
# Gal3S(b1-4)Glc6S = target: Gal3S(b1-4)Glc6S
# Summary of the method: as §1
# Gal3S(b1-4)GlcNAc = target: Gal3S(b1-4)GlcNAc
# Summary of the method: as §1
# [27] = target: Gal3S(b1-4)[Fuc(a1-3)]Glc6S
# Summary of the method: as §1
# [28] = target: Gal3S(b1-4)[Fuc(a1-3)]GlcNAc
# Summary of the method: as §1
# [29] = target: Gal3S(b1-4)[Fuc(a1-3)]GlcNAc6S
# Summary of the method: as §1
# Gal3S4S(b1-4)GlcNAc = target: Gal3S4S(b1-4)GlcNAc
# Summary of the method: as §1
binder,measurement,setting,value
B1,glycan array binding signal (z-score),[1],1.96
same,glycan array binding signal (z-score),[2],1.94
same,glycan array binding signal (z-score),[3],0.195
same,glycan array binding signal (z-score),[4],1.75
same,glycan array binding signal (z-score),[5],3.35
same,glycan array binding signal (z-score),[6],1.02
same,glycan array binding signal (z-score),[7],0.988
same,glycan array binding signal (z-score),[8],3.73
same,glycan array binding signal (z-score),[9],0.897
same,glycan array binding signal (z-score),[10],4.37
same,glycan array binding signal (z-score),[11],4.28
same,glycan array binding signal (z-score),[12],4.79
same,glycan array binding signal (z-score),[13],-0.194
same,glycan array binding signal (z-score),[14],1.08
same,glycan array binding signal (z-score),[15],1.47
same,glycan array binding signal (z-score),[16],1.52
same,glycan array binding signal (z-score),[17],-0.674
same,glycan array binding signal (z-score),[18],-0.074
same,glycan array binding signal (z-score),[19],1.21
same,glycan array binding signal (z-score),[20],0.357
same,glycan array binding signal (z-score),[21],-0.548
same,glycan array binding signal (z-score),[22],0.142
same,glycan array binding signal (z-score),[23],1.48
same,glycan array binding signal (z-score),[24],0.73
same,glycan array binding signal (z-score),[25],-0.704
same,glycan array binding signal (z-score),Gal(b1-4)GlcNAc6P,-0.571
same,glycan array binding signal (z-score),Gal(b1-6)Gal,-1.05
same,glycan array binding signal (z-score),Gal3S(b1-3)GalNAc,0.411
same,glycan array binding signal (z-score),Gal3S(b1-3)GlcNAc,-0.3
same,glycan array binding signal (z-score),[26],-0.442
same,glycan array binding signal (z-score),Gal3S(b1-4)Glc,1.79
same,glycan array binding signal (z-score),Gal3S(b1-4)Glc6S,-0.27
same,glycan array binding signal (z-score),Gal3S(b1-4)GlcNAc,-0.79
same,glycan array binding signal (z-score),[27],1.26
same,glycan array binding signal (z-score),[28],0.218
same,glycan array binding signal (z-score),[29],0.322
same,glycan array binding signal (z-score),Gal3S4S(b1-4)GlcNAc,-0.786

# Another view of some results above.
binder | measurement | setting | value
B1 | glycan array binding signal (z-score) | [12] | 4.79
same | glycan array binding signal (z-score) | [13] | -0.194
same | glycan array binding signal (z-score) | [14] | 1.08
